Data as given in patent US11542473B2, “Methods and compositions for generating hematopoietic cells” (priority 2016, dated 2023).
Some of these results come from one statement about several compounds together. At least one compound was matched to its structure with a doubt left.

Tested on: differentiating hPSC cultures
Assay: Cell viability by flow cytometry (7AAD-)
Type: cell-based, human
Conditions: after PKA and Epac inhibition; similar to controls

| SMILES | cell viability |
| --- | --- |
| CC(C)(C)c1cc(C(=O)C(C#N)=NNc2cccc(Cl)c2)no1 [Epac inhibitor] | 90-95% |
| Nc1ncnc2c1nc(Sc1ccc(Cl)cc1)n2[C@@H]1O[C@@H]2COP(O)(=S)O[C@H]2[C@H]1O (some centres unmarked) [PKA inhibitor, Rp-8-CPT-cAMPS] | 90-95% |
